Data: paper PMC5687603
No constants are given. Whether binding was seen depends on the method and setting. In cells and extracts the contact can be indirect. Some binding calls cover weakened binding; strength is not graded here. For some of these results: Tags and fused reporters may be left off the sequences shown. Each block holds one binder with its values, some of them ahead of it.

Assays:
[1] = molecular target: T1, de-glycosylated short-form Klotho, triple mutant N161A/N285A/N346A (mouse) (UniProt O35082); experiment: co-IP; lysates of HEK293 cells expressing recombinant Skl, Klotho or Flag antibody-conjugated beads (Direct IP kit), 4°C overnight; western blot with Klotho and FGH (ESD) antibodies
T1 sequence: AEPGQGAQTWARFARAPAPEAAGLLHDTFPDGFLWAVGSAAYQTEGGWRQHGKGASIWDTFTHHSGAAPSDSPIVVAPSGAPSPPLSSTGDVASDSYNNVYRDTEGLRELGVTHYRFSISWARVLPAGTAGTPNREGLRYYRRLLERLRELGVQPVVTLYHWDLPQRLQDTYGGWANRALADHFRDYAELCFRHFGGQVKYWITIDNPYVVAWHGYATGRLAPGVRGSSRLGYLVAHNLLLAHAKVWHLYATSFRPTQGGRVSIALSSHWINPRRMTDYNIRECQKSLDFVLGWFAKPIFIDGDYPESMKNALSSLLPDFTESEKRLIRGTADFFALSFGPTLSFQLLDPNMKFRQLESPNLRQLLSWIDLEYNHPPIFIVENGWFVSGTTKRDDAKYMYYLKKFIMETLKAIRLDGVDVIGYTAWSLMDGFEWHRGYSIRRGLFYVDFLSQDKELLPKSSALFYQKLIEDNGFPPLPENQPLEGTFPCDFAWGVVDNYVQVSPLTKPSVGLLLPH

[2] = molecular target: T2, recombinant mouse short-form Klotho with C-terminal Flag and 6xHis (HEK293) (mouse) (UniProt O35082); experiment: as above
T2 sequence (chain, N-glycosylated at N161, N285 and N346): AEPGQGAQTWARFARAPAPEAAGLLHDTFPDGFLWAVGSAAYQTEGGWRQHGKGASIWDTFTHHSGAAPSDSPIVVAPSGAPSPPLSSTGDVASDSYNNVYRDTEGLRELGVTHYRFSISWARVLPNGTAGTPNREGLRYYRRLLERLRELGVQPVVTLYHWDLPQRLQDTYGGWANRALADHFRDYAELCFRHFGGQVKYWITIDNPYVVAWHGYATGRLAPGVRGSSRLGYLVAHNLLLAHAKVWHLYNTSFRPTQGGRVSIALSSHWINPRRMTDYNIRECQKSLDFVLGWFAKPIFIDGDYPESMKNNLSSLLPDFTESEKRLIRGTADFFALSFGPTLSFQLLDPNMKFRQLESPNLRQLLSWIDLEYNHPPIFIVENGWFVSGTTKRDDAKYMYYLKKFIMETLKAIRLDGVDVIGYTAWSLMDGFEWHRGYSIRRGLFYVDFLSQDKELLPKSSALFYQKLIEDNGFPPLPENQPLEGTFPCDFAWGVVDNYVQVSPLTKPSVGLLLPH

[3] = molecular target: T3, recombinant mouse short-form Klotho with C-terminal Flag and 6xHis (mIMCD) (mouse) (UniProt O35082); experiment: co-IP; lysates of mIMCD cells expressing recombinant Skl, Klotho or Flag antibody-conjugated beads (Direct IP kit), 4°C overnight; western blot with Klotho and FGH (ESD) antibodies
T3 sequence: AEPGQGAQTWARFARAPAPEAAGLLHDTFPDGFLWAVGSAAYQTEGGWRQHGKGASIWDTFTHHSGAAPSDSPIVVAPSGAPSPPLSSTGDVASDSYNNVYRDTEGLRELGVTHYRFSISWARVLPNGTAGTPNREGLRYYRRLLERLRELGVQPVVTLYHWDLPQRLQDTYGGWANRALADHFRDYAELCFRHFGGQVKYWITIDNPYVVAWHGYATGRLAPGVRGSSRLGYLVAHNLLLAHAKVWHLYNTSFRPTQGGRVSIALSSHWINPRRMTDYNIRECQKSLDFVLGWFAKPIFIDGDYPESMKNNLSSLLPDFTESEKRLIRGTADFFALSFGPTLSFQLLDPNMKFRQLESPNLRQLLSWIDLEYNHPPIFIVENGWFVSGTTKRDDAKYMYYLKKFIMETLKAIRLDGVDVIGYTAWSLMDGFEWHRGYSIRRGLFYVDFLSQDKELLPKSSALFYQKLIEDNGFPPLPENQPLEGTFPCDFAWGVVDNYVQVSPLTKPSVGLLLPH

[4] = molecular target: T4, short-form Klotho, endogenous in mouse kidney (mouse (endogenous in kidney)) (UniProt O35082); experiment: co-IP; kidney lysates of wild-type and KL-/- mice, Klotho antibody-conjugated IP-Direct beads; western blot for Klotho and FGH
T4 sequence: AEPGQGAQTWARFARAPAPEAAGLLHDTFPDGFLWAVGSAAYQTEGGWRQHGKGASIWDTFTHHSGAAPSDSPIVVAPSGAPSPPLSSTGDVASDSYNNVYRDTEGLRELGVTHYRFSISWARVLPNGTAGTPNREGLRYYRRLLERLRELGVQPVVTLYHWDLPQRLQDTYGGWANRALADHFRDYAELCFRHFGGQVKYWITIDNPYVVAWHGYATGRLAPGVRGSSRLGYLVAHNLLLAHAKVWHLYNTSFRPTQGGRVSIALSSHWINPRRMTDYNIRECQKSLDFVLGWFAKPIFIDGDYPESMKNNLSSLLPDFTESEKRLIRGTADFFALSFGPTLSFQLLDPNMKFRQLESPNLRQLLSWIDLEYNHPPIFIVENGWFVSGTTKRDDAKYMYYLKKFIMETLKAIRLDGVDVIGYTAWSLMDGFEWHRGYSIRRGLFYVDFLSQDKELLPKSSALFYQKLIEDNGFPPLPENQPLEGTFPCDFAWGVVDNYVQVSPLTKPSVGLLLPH

binding [1]: binds
binding [2]: binds
B1: S-formylglutathione hydrolase (human, HEK293) (enzyme, UniProt P10768 1-282)
chain: MALKQISSNKCFGGLQKVFEHDSVELNCKMKFAVYLPPKAETGKCPALYWLSGLTCTEQNFISKSGYHQSASEHGLVVIAPDTSPRGCNIKGEDESWDFGTGAGFYVDATEDPWKTNYRMYSYVTEELPQLINANFPVDPQRMSIFGHSMGGHGALICALKNPGKYKSVSAFAPICNPVLCPWGKKAFSGYLGTDQSKWKAYDATHLVKSYPGSQLDILIDQGKDDQFLLDGQLLPDNFIAACTEKKIPVVFRLQEGYDHSYYFIATFITDHIRHHAKYLNA

binding [3]: binds
B2: S-formylglutathione hydrolase (mouse, mIMCD) (enzyme, UniProt Q9R0P3 1-282)
chain: MALKQISSNRCFGGLQKVFEHSSVELKCKMRFAVYLPPQAESGKCPALYWLSGLTCTEQNFISKSGYQQAASEHGLVVIAPDTSPRGCNIKGEDDSWDFGTGAGFYVNATEDPWKANYRMYSYVTEELPQLINANFPVDPQRMSIFGHSMGGHGALICALKNPGKYRSVSAFAPICNPVLCSWGKKAFSGYLGPDESKWKAYDATCLVKAYSGSQIDILIDQGKDDEFLSNGQLLPDNFIAACTEKKIPVVFRLQEGYDHSYYFIATFIADHIRHHAKYLNA

binding [4]: binds
B3: S-formylglutathione hydrolase (mouse, kidney) (enzyme, UniProt Q9R0P3 1-282)
chain: MALKQISSNRCFGGLQKVFEHSSVELKCKMRFAVYLPPQAESGKCPALYWLSGLTCTEQNFISKSGYQQAASEHGLVVIAPDTSPRGCNIKGEDDSWDFGTGAGFYVNATEDPWKANYRMYSYVTEELPQLINANFPVDPQRMSIFGHSMGGHGALICALKNPGKYRSVSAFAPICNPVLCSWGKKAFSGYLGPDESKWKAYDATCLVKAYSGSQIDILIDQGKDDEFLSNGQLLPDNFIAACTEKKIPVVFRLQEGYDHSYYFIATFIADHIRHHAKYLNA
